# Test results from patent US20230000876A1, “TREATING CANCERS WITH A CYCLIN-DEPENDENT KINASE INHIBITOR” (Nuvation Bio Inc., priority 2021, published 2023).
# For at least one compound, name, drawing or mass did not settle the structure.
# Key:
# U-118MG xenograft tumors = assay: U-118MG glioma subcutaneous xenograft model; set-up: species or system female CB17 SCID mice; settings: mouse, in vivo
# Method: The tumor cells were routinely subcultured twice weekly. The cells growing in an exponential growth phase were harvested and counted for tumor inoculation.
# The treatments was started on day 7 after tumor inoculation when the average tumor volume reached 150 mm^3. 60 mice were selected and assigned into 6 groups. The testing articles were administrated to the mice according to Table 1.
# Tumor size was measured twice weekly in two dimensions using a caliper, and the volume was expressed in mm^3 using the formula: V=0.5 a×b^2 where a and b are the long and short diameters of the tumor, respectively. The tumor sizes are then used for the calculation of T/C and TGI values.
# The T/C value (in percent) is an indication of antitumor effectiveness; T and C are the mean volume of the treated and control groups, respectively, on a given day.
# TGI was calculated for each group using the formula: TGI (%)=[1−(Ti−T0)/(Vi−V0)]×100; Ti is the average tumor volume of a treatment group on PG-D28 T0 is the average tumor volume of the treatment group on the day of treatment start, Vi is the average tumor volume of the vehicle control group on the same day with Ti, and V0 is the average tumor volume of the vehicle group on the day of treatment start.
# All Groups were taken down on PG-D28, tumor, plasma and brain samples were collected. […]
# [1] = tested on: 7 CNS metastasis cell lines (MOLT-4-luc, Nalm-6-luc, NCI-H460-luc, ACHN-luc2, PC-9-luc, H1975-luc, KM12-luc); assay: Anti-proliferation assay, 7 CNS metastasis cell lines taken together; assay type: cell-based; settings: current testing concentrations
# Method: The anti-proliferation effect of 2 compounds (the compound of formula (I) and temozolomide) in 7 CNS metastasis cell lines (MOLT-4-luc, Nalm-6-luc, NCI-H460-luc, ACHN-luc2, PC-9-luc, H1975-luc, and KM12-luc) was evaluated.
# The plating of cells and compound treatments are shown below in the plate map (Table 12). One plate was needed for the test of 2 compounds (the compound of formula (I) and temozolomide) in one cell line. The compound of formula (I) was tested from 10 μM, 3-fold serial dilution. Temozolomide was tested from 100 μM, 3-fold serial dilution. […]
# The procedures were performed according to the Promega CellTiter-Glo Luminescent Cell Viability Assay Kit manual (Promega-G7573). • The CellTiter-Glo buffer was thawed and equilibrated to room temperature prior to use. • CellTiter-Glo Substrate was equilibrated to room temperature prior to use. • The entire liquid volume of CellTiter-Glo Buffer was transferred into the amber bottle containing CellTiter-Glo Substrate to reconstitute the lyophilized enzyme/substrate mixture. […] Plates were covered with aluminum foil to protect from light. • The contents were mixed for 2 minutes on an orbital shaker to induce cell lysis. • The plate was incubated at room temperature for 20 minutes to stabilize luminescent signal. • Record luminescence on the 2104 EnVision plate reader. […]
smiles,measurement,setting,value
"Cn1nnc2c(C(N)=O)ncn2c1=O [Temozolomide, reference compound]",Antitumor activity relative to the control group,U-118MG xenograft tumors,did not demonstrate statistically significant antitumor activity
same,Inhibitory effect in cell viability assay,[1],didn't show obvious inhibitory effect
